Results as given in patent US20040171105A1.
Results are given in words; binding and its absence hold for the method and conditions named. Binding seen in cells or lysates may run through a third protein. Some results given as binding are weak or reduced against the parent protein; the word gives no strength. Sequences can lack the tags named with a protein. Blank lines part the entries; values can stand above or below the binder they belong to.

The chains behind the UniProt entries cited, without tags or fusion partners.
UniProt Q13490: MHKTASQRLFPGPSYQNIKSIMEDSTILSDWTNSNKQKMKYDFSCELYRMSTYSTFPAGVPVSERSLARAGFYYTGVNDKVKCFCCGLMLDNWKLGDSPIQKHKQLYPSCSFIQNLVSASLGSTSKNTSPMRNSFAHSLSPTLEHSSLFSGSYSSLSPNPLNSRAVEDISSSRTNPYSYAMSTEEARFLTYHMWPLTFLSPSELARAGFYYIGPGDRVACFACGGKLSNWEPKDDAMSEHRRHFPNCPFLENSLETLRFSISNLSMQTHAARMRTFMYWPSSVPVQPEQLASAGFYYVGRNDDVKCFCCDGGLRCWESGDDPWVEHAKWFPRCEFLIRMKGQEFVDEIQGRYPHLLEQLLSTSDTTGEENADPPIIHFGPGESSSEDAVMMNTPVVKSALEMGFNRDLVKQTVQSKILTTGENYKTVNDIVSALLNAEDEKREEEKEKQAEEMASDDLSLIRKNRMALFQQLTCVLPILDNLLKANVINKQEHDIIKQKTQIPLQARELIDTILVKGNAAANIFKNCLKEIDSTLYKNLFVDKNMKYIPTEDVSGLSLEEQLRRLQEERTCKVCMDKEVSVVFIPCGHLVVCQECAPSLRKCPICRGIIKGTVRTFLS

Legend:
[1] = molecular target: cIAP1 (form used in the pull-down with MAVPS Omi, not described) (UniProt Q13490); assay: pull-down assay of Omi expressed in transfected HeLa cells
[2] = molecular target: GST fusion form of full-length human cIAP1 (human) (UniProt Q13490); assay: GST pulldown (50 nM GST-cIAP1, 100 nM Omi, Glutathione Sepharose beads, Western blot)
[3] = molecular target: GST fusion form of full-length human cIAP1 (human) (UniProt Q13490); assay: GST pulldown (50 nM GST-cIAP1, 100 nM Omi mutant), compared with Omi WT

- binding [1]: binds
B1: MAVPS Omi-Myc (cytosolic form of Omi, C-terminal c-Myc tagged, expressed in HeLa cells) (enzyme)
chain: AVPSPPPASPRSQYNFIADVVEKTAPAVVYIEILDRHPFLGREVPISNGSGFVVAADGLIVTNAHVVADRRRVRVRLLSGDTYEAVVTAVDPVADIATLRIQTKEPLPTLPLGRSADVRQGEFVVAMGSPFALQNTITSGIVSSAQRPARDLGLPQTNVEYIQTDAAIDFGNSGGPLVNLDGEVIGVNTMKVTAGISFAIPSDRLREFLHRGEKKNSSSGISGSQRRYIGVMMLTLSPSILAELQLREPSFPDVQHGVLIHKVILGSPAHRAGLRPGDVILAIGEQMVQNAEDVYEAVRTQSQLAVQIRRGRETLTLYVTPEVTEEQKLISEEDL

- binding [2]: binds
B2: Omi WT (wild-type mature Omi/HtrA2, C-terminal hexa-His tagged, recombinant from E. coli) (enzyme)
chain: AVPSPPPASPRSQYNFIADVVEKTAPAVVYIEILDRHPFLGREVPISNGSGFVVAADGLIVTNAHVVADRRRVRVRLLSGDTYEAVVTAVDPVADIATLRIQTKEPLPTLPLGRSADVRQGEFVVAMGSPFALQNTITSGIVSSAQRPARDLGLPQTNVEYIQTDAAIDFGNSGGPLVNLDGEVIGVNTMKVTAGISFAIPSDRLREFLHRGEKKNSSSGISGSQRRYIGVMMLTLSPSILAELQLREPSFPDVQHGVLIHKVILGSPAHRAGLRPGDVILAIGEQMVQNAEDVYEAVRTQSQLAVQIRRGRETLTLYVTPEVTEHHHHHH

- binding [3]: binds
B3: OmiΔPDZ (Omi with the PDZ domain deleted, C-terminal hexa-His tagged) (enzyme)
chain: AVPSPPPASPRSQYNFIADVVEKTAPAVVYIEILDRHPFLGREVPISNGSGFVVAADGLIVTNAHVVADRRRVRVRLLSGDTYEAVVTAVDPVADIATLRIQTKEPLPTLPLGRSADVRQGEFVVAMGSPFALQNTITSGIVSSAQRPARDLGLPQTNVEYIQTDAAIDFGNSGGPLVNLDGEVIGVNTMKVTAGISFAIPSDRLREFLHRGEKKNSSSGISGSQHHHHHH
